Reference: paper PMC9437860

Sequences of proteins named here, by UniProt entry; tags and fusion partners are left off.
UniProt Q9JLC8: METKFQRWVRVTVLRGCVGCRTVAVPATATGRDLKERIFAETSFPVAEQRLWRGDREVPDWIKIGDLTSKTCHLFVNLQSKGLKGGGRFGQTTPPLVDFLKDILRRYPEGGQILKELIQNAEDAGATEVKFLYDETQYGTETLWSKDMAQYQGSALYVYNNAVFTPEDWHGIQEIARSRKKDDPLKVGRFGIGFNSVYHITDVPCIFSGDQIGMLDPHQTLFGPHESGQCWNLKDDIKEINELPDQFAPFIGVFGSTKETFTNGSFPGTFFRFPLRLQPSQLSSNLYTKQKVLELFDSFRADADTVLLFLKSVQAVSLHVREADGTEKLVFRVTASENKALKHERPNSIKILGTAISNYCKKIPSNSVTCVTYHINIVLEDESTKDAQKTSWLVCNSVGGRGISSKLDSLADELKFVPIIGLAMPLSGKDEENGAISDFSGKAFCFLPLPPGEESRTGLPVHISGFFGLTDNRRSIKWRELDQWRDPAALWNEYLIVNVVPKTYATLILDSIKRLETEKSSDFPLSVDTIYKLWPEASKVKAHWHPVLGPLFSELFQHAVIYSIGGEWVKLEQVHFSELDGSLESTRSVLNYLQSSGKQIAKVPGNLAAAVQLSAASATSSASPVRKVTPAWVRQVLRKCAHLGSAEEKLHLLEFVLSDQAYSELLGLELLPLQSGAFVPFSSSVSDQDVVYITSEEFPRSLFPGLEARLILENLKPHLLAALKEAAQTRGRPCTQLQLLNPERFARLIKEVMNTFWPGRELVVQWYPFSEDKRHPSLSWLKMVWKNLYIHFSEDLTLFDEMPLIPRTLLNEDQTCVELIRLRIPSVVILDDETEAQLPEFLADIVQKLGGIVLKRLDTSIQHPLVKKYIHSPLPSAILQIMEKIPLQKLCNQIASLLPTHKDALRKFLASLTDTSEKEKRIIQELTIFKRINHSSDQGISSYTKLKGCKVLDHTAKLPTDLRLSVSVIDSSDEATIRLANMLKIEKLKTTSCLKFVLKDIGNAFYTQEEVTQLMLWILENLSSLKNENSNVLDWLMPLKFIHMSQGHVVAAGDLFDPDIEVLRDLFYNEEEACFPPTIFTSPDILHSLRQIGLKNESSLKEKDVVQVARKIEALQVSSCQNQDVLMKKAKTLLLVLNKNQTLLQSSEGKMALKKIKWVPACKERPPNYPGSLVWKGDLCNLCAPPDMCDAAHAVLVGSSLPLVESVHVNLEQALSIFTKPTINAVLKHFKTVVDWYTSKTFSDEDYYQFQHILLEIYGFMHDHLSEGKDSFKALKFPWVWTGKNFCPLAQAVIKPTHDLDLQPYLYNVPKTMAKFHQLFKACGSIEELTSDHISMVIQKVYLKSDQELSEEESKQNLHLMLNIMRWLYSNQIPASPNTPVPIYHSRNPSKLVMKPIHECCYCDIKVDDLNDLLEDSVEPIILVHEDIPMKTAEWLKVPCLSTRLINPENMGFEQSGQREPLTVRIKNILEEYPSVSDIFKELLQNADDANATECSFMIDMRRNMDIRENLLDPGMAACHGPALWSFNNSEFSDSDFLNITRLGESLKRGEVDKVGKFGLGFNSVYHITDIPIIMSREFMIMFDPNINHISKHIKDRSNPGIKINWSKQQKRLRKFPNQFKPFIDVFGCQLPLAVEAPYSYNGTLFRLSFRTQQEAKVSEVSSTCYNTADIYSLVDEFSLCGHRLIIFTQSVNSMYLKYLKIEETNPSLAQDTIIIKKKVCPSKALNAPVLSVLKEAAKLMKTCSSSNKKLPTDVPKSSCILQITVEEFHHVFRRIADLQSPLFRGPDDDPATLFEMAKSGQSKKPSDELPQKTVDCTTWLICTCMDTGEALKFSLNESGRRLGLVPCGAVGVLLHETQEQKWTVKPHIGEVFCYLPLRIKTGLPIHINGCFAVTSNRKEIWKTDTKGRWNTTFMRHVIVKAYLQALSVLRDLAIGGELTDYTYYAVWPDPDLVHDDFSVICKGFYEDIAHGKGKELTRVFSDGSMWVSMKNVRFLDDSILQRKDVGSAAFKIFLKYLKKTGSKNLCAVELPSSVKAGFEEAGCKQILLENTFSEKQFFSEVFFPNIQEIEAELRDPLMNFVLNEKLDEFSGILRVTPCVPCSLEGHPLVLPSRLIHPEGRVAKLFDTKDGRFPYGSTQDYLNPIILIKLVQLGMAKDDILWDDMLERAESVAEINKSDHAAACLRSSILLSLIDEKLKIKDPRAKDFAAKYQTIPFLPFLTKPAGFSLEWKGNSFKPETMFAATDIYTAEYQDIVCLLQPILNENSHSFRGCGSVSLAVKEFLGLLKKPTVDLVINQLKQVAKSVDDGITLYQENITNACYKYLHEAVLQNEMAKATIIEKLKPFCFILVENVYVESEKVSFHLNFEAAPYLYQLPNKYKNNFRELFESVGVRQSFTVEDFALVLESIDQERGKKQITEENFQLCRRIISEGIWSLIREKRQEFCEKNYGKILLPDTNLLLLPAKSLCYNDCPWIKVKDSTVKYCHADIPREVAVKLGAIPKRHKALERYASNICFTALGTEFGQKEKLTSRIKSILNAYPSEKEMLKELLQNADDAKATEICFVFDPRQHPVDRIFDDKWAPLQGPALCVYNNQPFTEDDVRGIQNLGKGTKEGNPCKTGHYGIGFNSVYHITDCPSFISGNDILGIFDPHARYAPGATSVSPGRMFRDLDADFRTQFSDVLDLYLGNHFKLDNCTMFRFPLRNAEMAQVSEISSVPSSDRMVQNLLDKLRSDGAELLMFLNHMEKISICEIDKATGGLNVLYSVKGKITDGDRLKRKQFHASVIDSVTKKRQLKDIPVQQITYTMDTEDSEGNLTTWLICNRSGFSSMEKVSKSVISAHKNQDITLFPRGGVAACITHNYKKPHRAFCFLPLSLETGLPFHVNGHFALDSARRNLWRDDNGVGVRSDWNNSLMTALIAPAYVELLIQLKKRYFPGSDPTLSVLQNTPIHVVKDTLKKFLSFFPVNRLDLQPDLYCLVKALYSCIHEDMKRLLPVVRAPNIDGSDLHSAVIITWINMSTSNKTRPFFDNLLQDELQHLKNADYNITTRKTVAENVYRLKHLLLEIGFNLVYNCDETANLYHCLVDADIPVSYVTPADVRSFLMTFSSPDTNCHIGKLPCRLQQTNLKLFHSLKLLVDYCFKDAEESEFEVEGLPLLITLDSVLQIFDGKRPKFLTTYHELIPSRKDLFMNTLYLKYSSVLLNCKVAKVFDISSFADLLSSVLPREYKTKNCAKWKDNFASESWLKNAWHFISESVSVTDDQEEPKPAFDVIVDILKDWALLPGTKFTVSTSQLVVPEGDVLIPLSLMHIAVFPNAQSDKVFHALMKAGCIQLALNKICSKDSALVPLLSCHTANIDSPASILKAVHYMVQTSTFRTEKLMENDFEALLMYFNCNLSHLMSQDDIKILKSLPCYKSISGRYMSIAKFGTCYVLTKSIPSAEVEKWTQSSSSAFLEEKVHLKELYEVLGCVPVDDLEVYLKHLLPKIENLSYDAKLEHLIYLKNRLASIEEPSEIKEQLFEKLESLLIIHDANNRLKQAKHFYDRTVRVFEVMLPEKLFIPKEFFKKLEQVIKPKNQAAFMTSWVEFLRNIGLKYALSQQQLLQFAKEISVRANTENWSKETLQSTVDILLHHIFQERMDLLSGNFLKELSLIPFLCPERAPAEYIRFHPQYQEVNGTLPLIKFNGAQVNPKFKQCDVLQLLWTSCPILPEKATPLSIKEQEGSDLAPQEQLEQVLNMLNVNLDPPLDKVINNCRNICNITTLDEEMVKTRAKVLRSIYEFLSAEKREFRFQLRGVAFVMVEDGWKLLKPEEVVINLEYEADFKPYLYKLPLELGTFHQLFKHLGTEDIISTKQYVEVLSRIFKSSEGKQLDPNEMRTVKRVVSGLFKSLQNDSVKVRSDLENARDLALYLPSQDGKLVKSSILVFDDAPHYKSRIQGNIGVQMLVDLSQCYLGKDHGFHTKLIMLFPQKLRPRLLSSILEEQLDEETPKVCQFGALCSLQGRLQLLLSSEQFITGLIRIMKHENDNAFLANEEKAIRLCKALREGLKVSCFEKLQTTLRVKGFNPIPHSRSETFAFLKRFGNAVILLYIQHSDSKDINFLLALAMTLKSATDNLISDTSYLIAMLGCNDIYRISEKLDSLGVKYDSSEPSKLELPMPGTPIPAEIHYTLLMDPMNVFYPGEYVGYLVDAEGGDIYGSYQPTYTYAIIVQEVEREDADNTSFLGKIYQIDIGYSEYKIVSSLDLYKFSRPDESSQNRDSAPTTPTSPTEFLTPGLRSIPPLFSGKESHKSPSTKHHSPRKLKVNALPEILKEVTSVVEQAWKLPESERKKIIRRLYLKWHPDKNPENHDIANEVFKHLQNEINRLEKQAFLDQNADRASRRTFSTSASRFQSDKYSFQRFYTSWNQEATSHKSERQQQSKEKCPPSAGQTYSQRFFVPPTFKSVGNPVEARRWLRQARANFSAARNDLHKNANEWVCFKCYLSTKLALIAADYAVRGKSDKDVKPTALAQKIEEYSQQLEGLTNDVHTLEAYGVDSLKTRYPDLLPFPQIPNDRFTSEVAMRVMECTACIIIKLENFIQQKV

Biological target: sacsin (endogenous, mouse brain) (mouse (endogenous in mouse brain)) (UniProt Q9JLC8)
Assay: affinity purification with mass spectrometry; mouse brain lysate incubated with Protein A Sepharose beads conjugated to affinity-purified sacsin antibody, 2 h at 4 °C; control: beads with lysate

B1: JIP3 (C-jun-amino-terminal kinase-interacting protein 3), endogenous, mouse brain (protein, UniProt Q9ESN9 1-1337)
chain: MMEIQMDEGGGVVVYQDDYCSGSVMSERVSGLAGSIYREFERLIHCYDEEVVKELMPLVVNVLENLDSVLSENQEHEVELELLREDNEQLLTQYEREKALRKQAEEKFIEFEDALEQEKKELQIQVEHYEFQTRQLELKAKNYADQISRLEERESEMKKEYNALHQRHTEMIQTYVEHIERSKMQQVGGSGQTESSLPGRSRKERPTSLNVFPLADGMVRAQMGGKLVPAGDHWHLSDLGQLQSSSSYQCPNDEMSESGQSSAAATPSTTGTKSNTPTSSVPSAAVTPLNESLQPLGDYVSVTKNNKQAREKRNSRNMEVQVTQEMRNVSIGMGSSDEWSDVQDIIDSTPELDVCPETRLERTGSSPTQGIVNKAFGINTDSLYHELSTAGSEVIGDVDEGADLLGEFSVRDDFFGMGKEVGNLLLENSQLLETKNALNVVKNDLIAKVDQLSGEQEVLKGELEAAKQAKVKLENRIKELEEELKRVKSEAVTARREPREEVEDVSSYLCTELDKIPMAQRRRFTRVEMARVLMERNQYKERLMELQEAVRWTEMIRASREHPSVQEKKKSTIWQFFSRLFSSSSSPPPAKRSYPSVNIHYKSPTAAGFSQRRSHALCQISAGSRPLEFFPDDDCTSSARREQKREQYRQVREHVRNDDGRLQACGWSLPAKYKQLSPNGGQEDTRMKNVPVPVYCRPLVEKDPSTKLWCAAGVNLSGWKPHEEDSSNGPKPVPGRDPLTCDREGEGEPKSTHPSPEKKKAKETPEADATSSRVWILTSTLTTSKVVIIDANQPGTIVDQFTVCNAHVLCISSIPAASDSDYPPGEMFLDSDVNPEDSGADGVLAGITLVGCATRCNVPRSNCSSRGDTPVLDKGQGDVATTANGKVNPSQSTEEATEATEVPDPGPSESEATTVRPGPLTEHVFTDPAPTPSSSTQPASENGSESNGTIVQPQVEPSGELSTTTSSAAPTMWLGAQNGWLYVHSAVANWKKCLHSIKLKDSVLSLVHVKGRVLVALADGTLAIFHRGEDGQWDLSNYHLMDLGHPHHSIRCMAVVNDRVWCGYKNKVHVIQPKTMQIEKSFDAHPRRESQVRQLAWIGDGVWVSIRLDSTLRLYHAHTHQHLQDVDIEPYVSKMLGTGKLGFSFVRITALLIAGNRLWVGTGNGVVISIPLTETVVLHRGQLLGLRANKTSPTSGEGTRPGGIIHVYGDDSSDKAASSFIPYCSMAQAQLCFHGHRDAVKFFVSVPGNVLATLNGSVLDSPSEGPGPAAPAADAEGQKLKNALVLSGGEGYIDFRIGDGEDDETEECAGDVNQTKPSLSKAERSHIIVWQVSYTPE
binding: binds

No constants are given. Whether binding was seen depends on the method and setting. In cells and extracts the contact can be indirect. Here binding means that the protein was enriched with, or labelled near, the bait; the list need not be complete.
